Laboratory results published in the supplement of paper PMC5407854, “Inhibitor of ppGalNAc-T3-mediated O-glycosylation blocks cancer cell invasiveness and lowers FGF23 levels” (eLife, 2017).
Some of the results follow. Most entries show no effect beyond the scatter of the controls.

Test system: ppGalNAc-T2 sensor
Assay: T2 sensor activation Q score (MG/GFP ratio z-score vs DMSO controls) (SD units); higher = more sensor activation (inhibition of ppGalNAc-T2 glycosylation)
Details: HEK293 sensor cells; 10 µM; 6 h
Description: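 Cells were treated with compound at 10 uM for 6 h, then MG/GFP ratio was read by flow cytometry (10,000 cells per well, duplicate wells). Q = (R - R_neg)/SD_neg relative to DMSO vehicle controls; the signal rises when the glycosyltransferase is inhibited.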

Compound | T2 sensor activation Q score
COc1ccc(CN2CCN(c3ccccc3C)CC2)c(OC)c1 | -0.42
COc1cccc(CN2CCN(c3ccccc3)CC2)c1 | -1.19
Oc1ccc(CN2CCN(c3cccc(Cl)c3)CC2)cc1 | 0.11
CCN1CCN(Cc2cccc(Cl)c2)CC1 | 0.55
O=[N+]([O-])c1ccc(CN2CCN(c3ccccc3)CC2)cc1 | -0.43
Cc1ccccc1N1CCN(Cc2cccc([N+](=O)[O-])c2)CC1 | 0.215
Cc1ccccc1N1CCN(Cc2ccc(N(C)C)cc2)CC1 | -1.14
Fc1cccc(CN2CCN(c3ccccc3)CC2)c1 | -0.37
CCOc1cc(CN2CCN(c3ccccc3Cl)CC2)ccc1O | 0.125
O=[N+]([O-])c1ccc(N2CCN(Cc3c(F)cccc3F)CC2)cc1 | -0.4
Cc1ccccc1N1C(=O)CC(=O)NC1=O | -0.57
Cc1ccccc1N1CCN(Cc2cccc(Cl)c2)CC1 | 0.655
COc1ccc(/C=C/C2=CCN(C)CC2)cc1 | 0.01
COc1ccc(N2CCN(Cc3cccc([N+](=O)[O-])c3)CC2)cc1 | -0.53
CC(=O)c1ccc(N2CCN(Cc3cccc(Cl)c3)CC2)cc1 | 1.37
COc1ccccc1N1CCN(Cc2cc(C)ccc2C)CC1 | 0.775
O=[N+]([O-])c1ccc(N2CCN(Cc3ccc(O)cc3)CC2)cc1 | 0.28
O=C(CN1CCCCC1)c1ccccc1 | -0.67
OCCN1CCN(Cc2ccccc2)CC1 | -0.865
Cc1cccc(N2CCN(Cc3cccc(F)c3)CC2)c1C | -0.235
Cc1ccccc1N1CCN(Cc2ccc(Cl)cc2)CC1 | -0.27
COc1ccccc1CN1CCN(c2ccccc2)CC1 | -0.135
CN(C)c1ccc(CN2CCN(c3ccc(F)cc3)CC2)cc1 | -0.805
COc1cc(CN2CCN(C)CC2)c([N+](=O)[O-])cc1OC | -0.315
Brc1ccc(CN2CCN(Cc3ccc4c(c3)OCO4)CC2)cc1 | -0.025

2 entries picked at random from those above:
Compound | T2 sensor activation Q score
Cc1ccccc1N1CCN(Cc2ccc(N(C)C)cc2)CC1 | -1.14
O=[N+]([O-])c1ccc(N2CCN(Cc3c(F)cccc3F)CC2)cc1 | -0.4
